These are yes or no findings as the source states them, for the method shown. In cells and extracts the contact can be indirect. Some binding calls cover weakened binding; strength is not graded here.
Biological target: Klf4 (UniProt Q60793)
Assay: co-immunoprecipitation from lysate of day 2 reprogramming secondary MEFs, western blot detection

Amino acid sequences for entries named in this document (tags omitted). Residues count along the entry.
UniProt Q60793, residues 10-483: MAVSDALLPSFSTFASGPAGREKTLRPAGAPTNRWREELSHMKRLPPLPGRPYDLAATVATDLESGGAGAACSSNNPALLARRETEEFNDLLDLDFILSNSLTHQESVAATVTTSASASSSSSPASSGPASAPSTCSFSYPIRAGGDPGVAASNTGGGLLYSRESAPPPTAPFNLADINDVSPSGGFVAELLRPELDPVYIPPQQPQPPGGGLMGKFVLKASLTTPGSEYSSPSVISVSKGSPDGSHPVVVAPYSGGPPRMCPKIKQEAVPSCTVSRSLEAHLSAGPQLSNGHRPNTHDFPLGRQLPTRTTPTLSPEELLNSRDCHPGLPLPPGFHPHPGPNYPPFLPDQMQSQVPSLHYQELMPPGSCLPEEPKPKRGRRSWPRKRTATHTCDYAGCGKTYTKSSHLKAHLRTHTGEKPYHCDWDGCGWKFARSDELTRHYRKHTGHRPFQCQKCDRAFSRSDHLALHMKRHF
UniProt P48432: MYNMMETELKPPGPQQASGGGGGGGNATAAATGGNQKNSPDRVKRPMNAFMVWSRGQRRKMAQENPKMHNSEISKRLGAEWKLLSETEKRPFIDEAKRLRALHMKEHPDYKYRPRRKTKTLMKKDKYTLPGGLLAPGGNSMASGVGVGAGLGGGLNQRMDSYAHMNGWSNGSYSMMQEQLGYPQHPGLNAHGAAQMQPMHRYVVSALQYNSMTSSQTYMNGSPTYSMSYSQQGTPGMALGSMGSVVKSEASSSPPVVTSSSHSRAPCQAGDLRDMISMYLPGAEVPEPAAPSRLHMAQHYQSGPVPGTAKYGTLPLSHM

## Sox2 (from UniProt P48432 1-319)
  binding: binds
